Measured data: PubChem BioAssay AID1259405 (NCATS, 2018)

Assay: 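Silenced genes that increase secreted GFP made by CHO cells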 (primary screen)
Cell system: Chinese hamster CHO-K1 ovary cells with stable secreted eGFP expression
Reagent: single siRNA against mouse genes, 0.8 pmol siRNA per well (2 µl of 400 nM stock)
Timing: 3 days
Detection: 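Percent of the per-plate non-targeting control median for intracellular GFP per well by laser scanning cytometry and for cell viability by ATP luminescence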
Scale: GFP, % of control: higher = more GFP per well, higher productivity; viability (ATP), % of control: higher = more viable cells (more ATP)
Rule for the call: 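Called active when intracellular GFP, relative to negative control, is at or above 120%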
Shown is one part, drawn at random, of about 50,000 reagents tested. About 4,000 of them (8%) count as active. 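Mouse siRNA library applied to hamster cells; one well for each siRNA.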 The numbers tell different reagents against one gene apart.

{"Target gene": "Ephb4", "reagent no.": 1, "GFP, % of control": 85, "viability (ATP), % of control": 80.4, "activity call": "inactive"}
{"Target gene": "Gm9801", "reagent no.": 1, "GFP, % of control": 71.6, "viability (ATP), % of control": 69.6, "activity call": "inactive"}
{"Target gene": "Gm9801", "reagent no.": 2, "GFP, % of control": 33.4, "viability (ATP), % of control": 62.6, "activity call": "inactive"}
{"Target gene": "Gm9801", "reagent no.": 3, "GFP, % of control": 67.8, "viability (ATP), % of control": 87.7, "activity call": "inactive"}
{"Target gene": "Amdhd2", "reagent no.": 1, "GFP, % of control": 87.9, "viability (ATP), % of control": 75.4, "activity call": "inactive"}
{"Target gene": "Amdhd2", "reagent no.": 2, "GFP, % of control": 111, "viability (ATP), % of control": 136, "activity call": "inactive"}
{"Target gene": "Ccdc121", "reagent no.": 1, "GFP, % of control": 147, "viability (ATP), % of control": 115, "activity call": "active"}
{"Target gene": "Ccdc121", "reagent no.": 2, "GFP, % of control": 70.7, "viability (ATP), % of control": 69.7, "activity call": "inactive"}
{"Target gene": "Ccdc121", "reagent no.": 3, "GFP, % of control": 70.5, "viability (ATP), % of control": 87.9, "activity call": "inactive"}
{"Target gene": "Nol7", "reagent no.": 1, "GFP, % of control": 95.1, "viability (ATP), % of control": 75, "activity call": "inactive"}
{"Target gene": "Nol7", "reagent no.": 2, "GFP, % of control": 92.2, "viability (ATP), % of control": 88.8, "activity call": "inactive"}
{"Target gene": "Nol7", "reagent no.": 3, "GFP, % of control": 83.1, "viability (ATP), % of control": 83.6, "activity call": "inactive"}
{"Target gene": "Cysltr2", "reagent no.": 1, "GFP, % of control": 61.9, "viability (ATP), % of control": 80.6, "activity call": "inactive"}
{"Target gene": "Cysltr2", "reagent no.": 2, "GFP, % of control": 72.1, "viability (ATP), % of control": 85.8, "activity call": "inactive"}
{"Target gene": "Cysltr2", "reagent no.": 3, "GFP, % of control": 53.6, "viability (ATP), % of control": 69.8, "activity call": "inactive"}
{"Target gene": "Vwa2", "reagent no.": 1, "GFP, % of control": 64.2, "viability (ATP), % of control": 75.6, "activity call": "inactive"}
{"Target gene": "Vwa2", "reagent no.": 2, "GFP, % of control": 50.2, "viability (ATP), % of control": 36.9, "activity call": "inactive"}
{"Target gene": "Vwa2", "reagent no.": 3, "GFP, % of control": 65.4, "viability (ATP), % of control": 53.3, "activity call": "inactive"}
{"Target gene": "Fbxo8", "reagent no.": 1, "GFP, % of control": 86.9, "viability (ATP), % of control": 86.9, "activity call": "inactive"}
{"Target gene": "Fbxo8", "reagent no.": 2, "GFP, % of control": 66.3, "viability (ATP), % of control": 64, "activity call": "inactive"}
{"Target gene": "Fbxo8", "reagent no.": 3, "GFP, % of control": 34.2, "viability (ATP), % of control": 44.2, "activity call": "inactive"}
{"Target gene": "Pip4k2b", "reagent no.": 1, "GFP, % of control": 70.3, "viability (ATP), % of control": 92.3, "activity call": "inactive"}
{"Target gene": "Ccdc7a", "reagent no.": 1, "GFP, % of control": 74.7, "viability (ATP), % of control": 74.2, "activity call": "inactive"}
{"Target gene": "Ccdc7a", "reagent no.": 2, "GFP, % of control": 75, "viability (ATP), % of control": 47.3, "activity call": "inactive"}
{"Target gene": "Ccdc7a", "reagent no.": 3, "GFP, % of control": 82.5, "viability (ATP), % of control": 90.5, "activity call": "inactive"}
{"Target gene": "Ugt1a10", "reagent no.": 1, "GFP, % of control": 35.6, "viability (ATP), % of control": 32.9, "activity call": "inactive"}
{"Target gene": "Ugt1a10", "reagent no.": 2, "GFP, % of control": 78.6, "viability (ATP), % of control": 90.3, "activity call": "inactive"}
{"Target gene": "Ugt1a10", "reagent no.": 3, "GFP, % of control": 84.4, "viability (ATP), % of control": 53.2, "activity call": "inactive"}
{"Target gene": "Ctsm", "reagent no.": 1, "GFP, % of control": 56.2, "viability (ATP), % of control": 114, "activity call": "inactive"}
{"Target gene": "Ctsm", "reagent no.": 2, "GFP, % of control": 81.9, "viability (ATP), % of control": 74.3, "activity call": "inactive"}
{"Target gene": "Ctsm", "reagent no.": 3, "GFP, % of control": 52.5, "viability (ATP), % of control": 73.2, "activity call": "inactive"}
{"Target gene": "Tac2", "reagent no.": 1, "GFP, % of control": 40.4, "viability (ATP), % of control": 46.5, "activity call": "inactive"}
{"Target gene": "Tac2", "reagent no.": 2, "GFP, % of control": 45.2, "viability (ATP), % of control": 56.3, "activity call": "inactive"}
{"Target gene": "Tac2", "reagent no.": 3, "GFP, % of control": 83.6, "viability (ATP), % of control": 66.8, "activity call": "inactive"}
{"Target gene": "Qtman", "reagent no.": 1, "GFP, % of control": 43.5, "viability (ATP), % of control": 64.7, "activity call": "inactive"}
{"Target gene": "Qtman", "reagent no.": 2, "GFP, % of control": 88.5, "viability (ATP), % of control": 82.4, "activity call": "inactive"}
{"Target gene": "Qtman", "reagent no.": 3, "GFP, % of control": 104, "viability (ATP), % of control": 74.5, "activity call": "inactive"}
{"Target gene": "Golga5", "reagent no.": 1, "GFP, % of control": 67.4, "viability (ATP), % of control": 74.5, "activity call": "inactive"}
{"Target gene": "Golga5", "reagent no.": 2, "GFP, % of control": 67.7, "viability (ATP), % of control": 44.2, "activity call": "inactive"}
{"Target gene": "Golga5", "reagent no.": 3, "GFP, % of control": 118, "viability (ATP), % of control": 70.5, "activity call": "inactive"}

Records above whose target name starts with U or u (3):
{"Target gene": "Ugt1a10", "reagent no.": 1, "GFP, % of control": 35.6, "viability (ATP), % of control": 32.9, "activity call": "inactive"}
{"Target gene": "Ugt1a10", "reagent no.": 2, "GFP, % of control": 78.6, "viability (ATP), % of control": 90.3, "activity call": "inactive"}
{"Target gene": "Ugt1a10", "reagent no.": 3, "GFP, % of control": 84.4, "viability (ATP), % of control": 53.2, "activity call": "inactive"}
